Record: PubChem BioAssay AID1259327 (Drosophila RNAi Screening Center, 2017)
Aim: 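Data from controls in screens of zinc and manganese toxicity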. Cells: Drosophila S2R+ cells. Knock-down reagent: long dsRNA against Drosophila genes. Timing: 5 days (water added on day 4, read one day later). Challenge: water added as vehicle, no metal, one day before read-out. Detection: 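Total ATP measured by luciferase light, scaled to plate mean, duplicates averaged, then z-scored across plates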. Reading the numbers: ATP z-score: higher = more total ATP than typical wells; ATP luminescence: higher = more total ATP. Rule for the call: 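a hit is any knock-down whose absolute ATP z-score is greater than 1.5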. Calls: active = hit: ATP up or down; inactive = no clear ATP change.
Here is a random part of about 3,100 reagents. In the full data, 378 (12%) got an active call. 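Hits include both directions; z-score sign shows ATP rise or fall; raw luminescence values are not plate-normalised.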 A plus sign joins genes that one reagent is predicted to hit. No sequences are given here. The record does not give: the amount of reagent.

predicted target	amplicon	ATP z-score, duplicate mean	ATP luminescence, replicate 1 (RLU)	ATP luminescence, replicate 2 (RLU)	call
HisCl1 (Histamine-gated chloride channel subunit 1)	DRSC14945	0.65	8.07e5	7.39e5	inactive
fng (fringe)	DRSC11887	0.353	7.68e5	7.70e5	inactive
fng (fringe)	DRSC21935	-1.01	4.93e5	4.94e5	inactive
Tsp66A + CG42660 + CG42661	DRSC10233	0.158	9.22e5	9.11e5	inactive
Gr10b (Gustatory receptor 10b)	DRSC19477	2.51	8.53e5	8.09e5	active
Gr10b (Gustatory receptor 10b)	DRSC28702	0.534	9.39e5	8.39e5	inactive
Osi22 (Osiris 22)	DRSC16442	-0.54	2.79e5	6.94e5	inactive
Osi22 (Osiris 22)	DRSC27176	-0.572	8.67e5	9.70e5	inactive
Gr58c (Gustatory receptor 58c)	DRSC04136	0.364	7.44e5	7.85e5	inactive
Nup153 (Nucleoporin 153kD)	DRSC19904	-2.59	4.55e5	4.21e5	active
CG13893	DRSC08363	0.429	5.72e5	7.45e5	inactive
CG13893	DRSC39792	2.06	5.81e5	6.68e5	active
Cad89D (Cadherin 89D)	DRSC15022	0.552	3.53e5	7.49e5	inactive
Cad89D (Cadherin 89D)	DRSC39775	0.0422	5.19e5	4.42e5	inactive
CG13796	DRSC24686	0.405	8.09e5	9.06e5	inactive
pain (painless)	DRSC04273	0.0332	7.29e5	7.31e5	inactive
pain (painless)	DRSC28351	-1.13	7.82e5	6.00e5	inactive
Gr21a (Gustatory receptor 21a)	DRSC00366	-0.00315	7.06e5	7.05e5	inactive
Gr21a (Gustatory receptor 21a)	DRSC28583	-1.67	3.84e5	8.39e5	active
Ir67b (Ionotropic receptor 67b)	DRSC09876	1.26	9.33e5	1.18e6	inactive
VGAT (Vesicular GABA Transporter)	DRSC07160	-1.64	4.48e5	4.94e5	active
CG16723	DRSC15138	0.463	3.21e5	8.10e5	inactive
CG16723	DRSC28144	-1.2	9.39e5	1.26e6	inactive
MFS18 (Major Facilitator Superfamily Transporter 18)	DRSC00452	0.338	4.30e5	5.81e5	inactive
MFS18 (Major Facilitator Superfamily Transporter 18)	DRSC39625	1.14	5.90e5	4.94e5	inactive
Rh4 (Rhodopsin 4)	DRSC27381	-0.898	9.96e5	1.09e6	inactive
Desat1 (Desaturase 1)	DRSC23578	-3.23	4.58e5	4.41e5	active
boss (bride of sevenless)	DRSC16916	-0.872	2.51e5	6.91e5	inactive
boss (bride of sevenless)	DRSC25941	-1.34	6.57e5	7.10e5	inactive
Or83a + CG1172	DRSC12357	1.72	1.02e6	1.21e6	active
Or83a + CG1172	DRSC39904	0.8	6.00e5	7.11e5	inactive
CG9760	DRSC11101	-1.74	7.03e5	6.34e5	active
CG9760	DRSC28846	1.24	1.09e6	8.61e5	inactive
ort (ora transientless)	DRSC16240	-0.333	2.72e5	7.56e5	inactive
ort (ora transientless)	DRSC39620	-1.65	3.44e5	3.62e5	active
CG15096	DRSC06525	0.834	8.04e5	8.37e5	inactive
CG15096	DRSC29737	-0.46	7.92e5	7.45e5	inactive
mthl7 (methuselah-like 7)	DRSC10852	0.639	9.53e5	1.00e6	inactive
mthl7 (methuselah-like 7)	DRSC39583	-1.83	3.50e5	3.31e5	active
Shab (Shaker cognate b)	DRSC08013	-0.423	6.68e5	7.27e5	inactive
Shab (Shaker cognate b)	DRSC08699	0.213	7.09e5	8.00e5	inactive
N (Notch)	DRSC18685	0.231	7.10e5	6.48e5	inactive
N (Notch)	DRSC37611	1.21	7.24e5	6.39e5	inactive
CG16727	DRSC15139	-0.525	2.61e5	7.43e5	inactive
CG16727	DRSC26820	1.8	1.13e6	8.51e5	active
Desat2 (Desaturase 2)	DRSC25894	-0.0123	8.44e5	8.54e5	inactive
Desat2 (Desaturase 2)	DRSC39498	0.737	4.61e5	5.40e5	inactive
Rh6 (Rhodopsin 6)	DRSC16823	0.664	3.47e5	7.87e5	inactive
Rh6 (Rhodopsin 6)	DRSC26166	1.02	9.64e5	9.90e5	inactive
Kua	DRSC02100	0.144	7.56e5	7.27e5	inactive
Ir85a (Ionotropic receptor 85a)	DRSC14382	1.93	3.73e5	1.01e6	active
Ir85a (Ionotropic receptor 85a)	DRSC29077	-0.88	7.75e5	6.64e5	inactive
VAChT + ChAT	DRSC13312	1.04	3.54e5	8.54e5	inactive
ppk28 (pickpocket 28)	DRSC19919	1.83	8.52e5	1.04e6	active
ppk28 (pickpocket 28)	DRSC39604	-0.0675	4.52e5	4.70e5	inactive
O-fut1 (O-fucosyltransferase 1)	DRSC06138	-2.38	4.92e5	4.62e5	active
O-fut1 (O-fucosyltransferase 1)	DRSC39595	-0.621	4.27e5	4.18e5	inactive
CG8249	DRSC07125	0.829	6.64e5	7.25e5	inactive
CG8249	DRSC39776	-0.892	3.89e5	4.46e5	inactive
disp (dispatched)	DRSC12376	-0.157	9.53e5	8.01e5	inactive
disp (dispatched)	DRSC39842	0.607	4.76e5	5.70e5	inactive
fz2 (frizzled 2)	DRSC10087	0.483	7.56e5	8.11e5	inactive
fz2 (frizzled 2)	DRSC11349	0.11	9.20e5	9.01e5	inactive
Tim23 (Translocase of inner mitochondrial membrane 23)	DRSC21240	-1.02	6.30e5	6.05e5	inactive
Sarm (Sterile alpha and Armadillo motif)	DRSC08906	-0.164	6.60e5	7.93e5	inactive
Sarm (Sterile alpha and Armadillo motif)	DRSC08907	0.766	8.99e5	7.47e5	inactive
Sarm (Sterile alpha and Armadillo motif)	DRSC10038	-0.316	8.66e5	8.43e5	inactive
Sarm (Sterile alpha and Armadillo motif)	DRSC10927	0.363	9.86e5	9.03e5	inactive
Sarm (Sterile alpha and Armadillo motif)	DRSC10929	-0.258	6.99e5	7.08e5	inactive

Copied from above, 10 entries:
predicted target	amplicon	ATP z-score, duplicate mean	ATP luminescence, replicate 1 (RLU)	ATP luminescence, replicate 2 (RLU)	call
ort (ora transientless)	DRSC39620	-1.65	3.44e5	3.62e5	active
CG15096	DRSC06525	0.834	8.04e5	8.37e5	inactive
CG15096	DRSC29737	-0.46	7.92e5	7.45e5	inactive
mthl7 (methuselah-like 7)	DRSC10852	0.639	9.53e5	1.00e6	inactive
mthl7 (methuselah-like 7)	DRSC39583	-1.83	3.50e5	3.31e5	active
Shab (Shaker cognate b)	DRSC08013	-0.423	6.68e5	7.27e5	inactive
Shab (Shaker cognate b)	DRSC08699	0.213	7.09e5	8.00e5	inactive
N (Notch)	DRSC18685	0.231	7.10e5	6.48e5	inactive
N (Notch)	DRSC37611	1.21	7.24e5	6.39e5	inactive
CG16727	DRSC15139	-0.525	2.61e5	7.43e5	inactive
